Source: patent US20250171560A1
Results are given in words; binding and its absence hold for the method and conditions named. Some results given as binding are weak or reduced against the parent protein; the word gives no strength. For part of these data: Tags and fused reporters may be left off the sequences shown.

Tests used:
[1] = molecular target: T1, recombinant UPK2 extracellular domain (UPK2-His) (Homo sapiens (Human)) (UniProt O00526); assay: phage ELISA, purified scFv phage on UPK2-his coated at 0.5 ug/ml, OD490
T1 sequence: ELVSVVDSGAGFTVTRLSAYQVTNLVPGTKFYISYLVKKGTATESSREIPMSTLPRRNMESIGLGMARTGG

[2] = molecular target: T1, recombinant UPK2 extracellular domain (UPK2-His) (Homo sapiens (Human)); assay: phage ELISA (FIG. 21)
[3] = molecular target: T1, recombinant UPK2 extracellular domain (UPK2-His) (Homo sapiens (Human)); assay: ELISA, antibody dilution series on UPK2-his coated at 0.5 ug/ml, OD490
[4] = molecular target: T1, recombinant UPK2 extracellular domain (UPK2-His) (Homo sapiens (Human)); assay: ELISA, recombinant whole antibody on UPK2-His (FIG. 22)
[5] = molecular target: T1, recombinant UPK2 extracellular domain (UPK2-His) (Homo sapiens (Human)); assay: ELISA, specificity (FIG. 23)
[6] = molecular target: T1, recombinant UPK2 extracellular domain (UPK2-His) (Homo sapiens (Human)); assay: summary of ELISA and specificity analysis
[7] = molecular target: T1, recombinant UPK2 extracellular domain (UPK2-His) (Homo sapiens (Human)); assay: SPR, BIAcore X-100
[8] = molecular target: T2, ACPP in paraffin sections of prostate cancer tissue; assay: immunofluorescence staining of paraffin sections of prostate cancer
T2 sequence: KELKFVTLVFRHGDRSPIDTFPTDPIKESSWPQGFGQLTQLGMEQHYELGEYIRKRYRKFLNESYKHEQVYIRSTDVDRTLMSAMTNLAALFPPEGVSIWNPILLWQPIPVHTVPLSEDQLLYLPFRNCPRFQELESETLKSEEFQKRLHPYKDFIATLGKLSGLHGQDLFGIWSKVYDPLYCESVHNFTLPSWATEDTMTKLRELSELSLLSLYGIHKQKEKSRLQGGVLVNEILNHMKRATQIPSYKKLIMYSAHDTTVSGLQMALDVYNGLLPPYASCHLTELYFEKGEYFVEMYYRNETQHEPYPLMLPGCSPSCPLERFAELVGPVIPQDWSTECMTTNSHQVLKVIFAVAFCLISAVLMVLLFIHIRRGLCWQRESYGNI

Measured: binding

B1: scFv UPK2-S2E2 (phage display clone) (scFv)
scFv: QVKLQQSGPELVRPGASVKMSCKASGYTFTTYWMHWVKQRPGQGLEWIGMIDPSNSDTRLNQKFKDKATLNVDTSSNTAYMHLSSLTSEDSAVYYCTLGGTEYWGQGATLTVSSGGGGSGGGGSGGGGSSIVMTQSPATLSVTPGDRVSLSCRASQSIGDYLHWFQQKSHESPRLLIKYASQSISGIPSRFSGSGSGSDFTLIINTMEPEDVGVYYCQNAHTYPYTFGGGTKLEIK
binds: [1] | [2]

B2: scFv UPK2-S3D10 (phage display clone) (scFv)
scFv: QVQLQQSGAELVRSGASVKLSCTDSGFNIKDYYMNWVKQRPEQGLEWIGWIDPENGVTQYDPKFQGKATVTADTFSNTAYLQLSSLTSEDTAVYYCNANYKYDWFGYWGQGTLVTVSAGGGGSGGGGSGGGGSNIVMTQSPSSLSASLGERVSLTCRASQEISGYLSWLQQKPDGTIKRLIYAASTLDSGVPERFSGSRSGSDYSLTISSLESEDFADYYCLQYASYPWTFGGGTKLEMK
binds: [1] | [2]

B3: scFv UPK2-S3A4 (phage display clone) (scFv)
scFv: EVKLKQSGAELVKPGASVKLSCKASGYTLTSYYIYWVKQRPGQGLEWIGGISPSNGNTYFTEKFKNMATLTVDKSSNTAYMQLSSLTSEDSAVYYCARNYDYDVGFAYWGQGTLVTVSSGGGGSGGGGSGGGGSDVVMTQTPLSLPVSLGDQASISCRSSQSIVHSNGNTYLEWYLQKPGQSPKLLIYKVSNRFSGVPDRFSGSGSGTDFTLKISRVEAEDLGVYYCFQGSHVPFTFGSGTKLEIK
binds: [1] | [2]

B4: scFv UPK2-S7F11 (phage display clone) (scFv)
scFv: EVQLKESGAELVRSGASVKLSCTASAFNIKDYYMNWMKQRPEQGLEWIGWIDPENGDTKYAPKFQGKATITADTSSSTAYLQLTSLTSEDSAVFYCNVNYKYDWFAYWGQGTLVTVSAGGGGSGGGGSGGGGSDVVMTQSQKFMSTSVGDRVSVTCKASQNVGTNVAWYQQKPGQSPRALIYSASYRYSGVPDRFTGSGSGTDFTLTISNVQSEDLAEYFCQQYNTYPWTFGGGTKLEIK
binds: [1] | [2]

B5: recombinant anti-UPK2 monoclonal antibody S2E2 (murine-human chimeric) (antibody, V domains shown)
VH: QVKLQQSGPELVRPGASVKMSCKASGYTFTTYWMHWVKQRPGQGLEWIGMIDPSNSDTRLNQKFKDKATLNVDTSSNTAYMHLSSLTSEDSAVYYCTLGGTEYWGQGATLTVSS
VL: SIVMTQSPATLSVTPGDRVSLSCRASQSIGDYLHWFQQKSHESPRLLIKYASQSISGIPSRFSGSGSGSDFTLIINTMEPEDVGVYYCQNAHTYPYTFGGGTKLEIK
binds: [3] | [4] | [5] | [6]

B6: recombinant anti-UPK2 monoclonal antibody S3A4 (murine-human chimeric) (antibody, V domains shown)
VH: EVKLKQSGAELVKPGASVKLSCKASGYTLTSYYIYWVKQRPGQGLEWIGGISPSNGNTYFTEKFKNMATLTVDKSSNTAYMQLSSLTSEDSAVYYCARNYDYDVGFAYWGQGTLVTVSS
VL: DVVMTQTPLSLPVSLGDQASISCRSSQSIVHSNGNTYLEWYLQKPGQSPKLLIYKVSNRFSGVPDRFSGSGSGTDFTLKISRVEAEDLGVYYCFQGSHVPFTFGSGTKLEIK
binds: [3] | [4] | [5] | [6]

B7: recombinant anti-UPK2 monoclonal antibody S3D10 (murine-human chimeric) (antibody, V domains shown)
VH: QVQLQQSGAELVRSGASVKLSCTDSGFNIKDYYMNWVKQRPEQGLEWIGWIDPENGVTQYDPKFQGKATVTADTFSNTAYLQLSSLTSEDTAVYYCNANYKYDWFGYWGQGTLVTVSA
VL: NIVMTQSPSSLSASLGERVSLTCRASQEISGYLSWLQQKPDGTIKRLIYAASTLDSGVPERFSGSRSGSDYSLTISSLESEDFADYYCLQYASYPWTFGGGTKLEMK
binds: [3] | [4] | [5] | [6] | [7]

B8: recombinant anti-UPK2 monoclonal antibody S7F11 (murine-human chimeric) (antibody, V domains shown)
VH: EVQLKESGAELVRSGASVKLSCTASAFNIKDYYMNWMKQRPEQGLEWIGWIDPENGDTKYAPKFQGKATITADTSSSTAYLQLTSLTSEDSAVFYCNVNYKYDWFAYWGQGTLVTVSA
VL: DVVMTQSQKFMSTSVGDRVSVTCKASQNVGTNVAWYQQKPGQSPRALIYSASYRYSGVPDRFTGSGSGTDFTLTISNVQSEDLAEYFCQQYNTYPWTFGGGTKLEIK
binds: [3] | [4] | [5] | [6] | [7]

B9: ACPP antibody S5D1 (human full antibody) (antibody, V domains shown)
VH: EVQLVQSGAEVKKPGESLKISCKGSGYTFTNYWIGWVRQMPGKGLEWMGRIYPSDSYTNYSPSFQGQVTISADKSISTAYLQWSSLKASDTAMYYCARDLEPTHHYSWGQGTLVTVSS
VL: QSVLTQPASVSGSPGQSVTISCTGTSSDVGGYNYVSWYQQHPGKPPKLMIYEVSKRPSGVPDRFSGSKSGNTASLTISGLQAEDEADYYCSSHTSSNTLIFGGGTKVTVL
binds: [8]
